# Laboratory results published in PubChem BioAssay AID2685 (National Center for Advancing Translational Sciences (NCATS), 2010).
# Out of some 320,000 compounds screened, about 2,100 (0.66%) were called active. The shares of active, inactive and inconclusive entries below differ from those in the screen. Calls come from the whole dose curve; as a rule, active = well fitted inhibition curve with a large enough effect in the signal ratio, with a control signal flat (not every such curve was filed as active); inconclusive = small, poorly fitted or top-dose-only effect, or effect the other way, or a change in a side signal; inactive = flat fitted curve, though single readings scatter; the % refers to the signal ratio. Potencies of inconclusive entries are doubtful fits and often do not repeat.
# Experiment: qHTS Assay for Lipid Storage Modulators in Drosophila S3 Cells
# Settings: BODIPY lipid droplet fluorescence, 18-24 h, cells fed with added oleic acid; lipid storage change, negative = inhibition: at 46.1 µM (top of the series) unless noted
# Method in brief: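 Laser-scanning cytometry quantifies lipid droplet accumulation (500–530 nm total intensity; droplet/cell object ratio) in oleic acid-fed (400 uM added) Drosophila S3 cells treated with a concentration series. 20 uM Triacsin C defined 100% inhibition.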
# % is set by controls: 0 for no effect and ±100 for the full control effect; potency is the fitted concentration of half-maximal effect.
SMILES,"lipid storage change, negative = inhibition",Potency
Cc1ccc(NC(=O)CC2NCCNC2=O)cc1Cl (configuration not stated),inconclusive: -102%,
CCCCC(=O)Nc1ccc(N2CCN(S(C)(=O)=O)CC2)cc1,,"inconclusive: 9.2 µM [falling, partial curve]"
COc1ccccc1CCC(=O)OCC(=O)Nc1ccc(C(N)=O)cc1,,"inconclusive: 0.164 µM [activator, single point]"
COC(=O)NC1CCC(NC(=O)OC)CC1 (configuration not stated),inactive,
O=C(O)Cn1c2ccccc2c2n[nH]c(=S)nc21,inconclusive: 83.5%,
S=c1[nH]nc(Cc2ccccc2)n1-c1ccccc1,inconclusive: -23.7%,
CCOC(=O)CC1CCCCN1Cc1nc(-c2ccc(F)c(OC)c2)oc1C (configuration not stated),inconclusive: -14.6%,
CCCC(=O)c1ccc(N2CCN(S(=O)(=O)c3ccccc3)CC2)c(F)c1,,"inconclusive: 29.1 µM [rising, single point]"
COc1cc(/C=C/C(=O)OCc2c(C)noc2C)ccc1OC(F)F,inconclusive: -42%,
CCOC(=O)C(C)c1c(C)[nH]c(=S)[nH]c1=O (configuration not stated),,"inconclusive: 1.64 µM [falling, partial curve, poor fit]"
Cc1occc1-c1nnc(SCC(=O)NC2CC2)n1C(C)C,,"inconclusive: 20.6 µM [activator, single point]"
Cc1ccccc1CN(C)CC(=O)Nc1cccc(S(=O)(=O)N(C)c2ccccc2)c1,,"inconclusive: 5.8 µM [activator, partial curve]"
CC(OC(=O)c1ccc2ncsc2c1)C(=O)N(C)C1CCCCC1 (configuration not stated),,"inconclusive: 2.06 µM [falling, partial curve, poor fit]"
O=C(CN1CCN(c2ccc(Cl)cc2)CC1)NCc1cccs1,inconclusive: -0.62%,
Cc1cccc(NC(=O)N2CCCCCC2)c1C,inconclusive: 17.9%,
CC(C)(C)c1ccc(S(=O)(=O)CCc2ccccn2)cc1,inconclusive: -14.2%,
O=C1CC(c2ccccc2)CN1C(=O)c1cncc(Br)c1 (configuration not stated),inconclusive: 39%,
O=C(NN=C1CCCC1)c1cc(-c2ccc(F)cc2)nc2ccccc12,,"inconclusive: 0.058 µM [falling, full curve, poor fit]"
COc1ccc2nc(SCC(=O)NCc3ccc4c(c3)OCO4)[nH]c2c1,inconclusive: 13.3%,
COCCN(CCOC)S(=O)(=O)c1ccc(C(=O)Nc2sc3c(c2C(N)=O)CCCCC3)cc1,inconclusive: 33.9%,
O=C(CNc1cccc(S(=O)(=O)N2CCCC2)c1)Nc1cccc(F)c1,inconclusive: -35% [at 0.0737 µM],
O=C(CSc1nnc(CNC(=O)c2ccco2)o1)c1ccccc1,,"inconclusive: 20.6 µM [rising, single point]"
O=C(c1ccncc1)N1c2ccccc2Sc2ccccc21,inconclusive: -25.3%,
Cc1cc(C)nc(-n2nc(C)c3c(C(F)F)cc(C)nc32)n1,inconclusive: -15%,
CNC(=O)CN1C(=O)NC(c2ccccc2)(c2ccccc2)C1=O,inconclusive: 80.7%,
Cc1cc(C(F)(F)F)nn1Cc1n[nH]c(=S)n1-c1ccc(F)cc1,inconclusive: -7.49%,

SMILES,"lipid storage change, negative = inhibition",Potency
CC1(C)SC2c3ccccc3C(=O)N2[C@@H]1C(=O)NCCCN1CCOCC1 (some centres not stated),,"inconclusive: 0.0651 µM [falling, full curve, poor fit]"
Cc1cc(C)cc(N(CCC(=O)Nc2nnc(C3CC3)s2)S(=O)(=O)c2ccc(Cl)cc2)c1,,"inconclusive: 20.6 µM [falling, partial curve]"
CCCOc1ccc(C(=O)Nc2ccc(N3CCN(C(=O)c4ccco4)CC3)cc2)cc1,inconclusive: -2.83%,
COc1cccc(NC=C2C(=O)OC(C)(C)OC2=O)c1,,"inconclusive: 6.51 µM [falling, single point]"
O=C(O)CCC(=O)Nc1ccccc1C(=O)NCCc1ccccc1,inconclusive: -11.6%,
CCOC(=O)[C@H]1[C@H]2COc3cc(OC)ccc3[C@@H]2N2C(=O)N(c3ccc(Br)cc3)C(=O)[C@@]12C,,"inconclusive: 29.1 µM [activator, single point]"
O=C(N/N=C/c1ccc(OC(=O)c2ccco2)cc1)c1ccccn1,inconclusive: -14.1%,
O=C1Cc2cc(S(=O)(=O)Nc3cccc(F)c3)ccc2N1,inconclusive: -56.3%,
COC(=O)/C=c1/s/c(=C(/C#N)C(=O)N2CCOCC2)n(-c2ccccc2)c1=O,,"inconclusive: 3.66 µM [cytotoxic, full curve]"
O=C(c1cc(C(=O)NCCc2ccccc2)c(=O)n(CCc2ccccc2)c1)c1cc(Cl)ccc1O,inconclusive: 6.62%,
Cc1ccc(N=Cc2sc(O)c3ccccc23)cc1,inconclusive: -58%,
O=C(Oc1ccccc1N1C(=O)C2CCCCC2C1=O)c1ccc(Cl)cc1 (configuration not stated),,"inconclusive: 0.291 µM [falling, partial curve]"
COc1ccc(C(=O)n2nc(-c3ccco3)nc2N)cc1,inconclusive: -28.1%,
Cn1c2ccccc2c2cc(C(=O)OCC(=O)N3CC(=O)Nc4ccccc43)sc21,,"inconclusive: 0.517 µM [activator, full curve, poor fit]"
COc1ccccc1C(=O)NC(=S)Nc1ccc(NC(=O)c2cccs2)cc1,inconclusive: 81.6%,
CC(=O)c1c(N2CCOCC2)nc(=S)n(-c2ccc([N+](=O)[O-])cc2)c1C,,"inconclusive: 29.1 µM [activator, single point]"
O=C1[C@@H]2[C@H]3CC[C@H](C3)[C@@H]2C(=O)N1O,inconclusive: 11.6%,
Cc1c(C)n2c(SCC(=O)Nc3ccc4c(c3)OCCO4)nnc2[nH]c1=O,inconclusive,
COc1ccc(C(=O)Nn2c(SCC(=O)NC3CCCC3)nc3ccccc3c2=O)cc1,inconclusive: 27%,
S=c1[nH]nc(C2CCCCC2)n1/N=C/c1ccc(Br)s1,,"inconclusive: 25.9 µM [cytotoxic, partial curve]"
CCC(C)NC(=O)Cn1cc2c(n1)CCC(C)C2 (configuration not stated),,"inconclusive: 3.66 µM [falling, single point]"
O=C(NC1CCCCC1)c1cc(-c2cccs2)on1,inconclusive: 68.2%,
O=C(CCCC1=NS(=O)(=O)c2ccccc2N1)Nc1ccccc1,inconclusive: 29.3%,
COc1ccc(Cl)cc1C(=O)NNC(=O)COC(=O)CCN=C1NS(=O)(=O)c2ccccc21,,"inconclusive: 13 µM [activator, partial curve]"
CCN(CC)c1ccc(C(=O)NNC(=O)c2cccn2C)cc1,inconclusive,
O=C(CCN1CCCCCC1)Nc1cccc(Cl)c1,inconclusive: -7.85%,

SMILES,"lipid storage change, negative = inhibition",Potency
Cc1ccnc(NC(=O)c2cccs2)c1,inconclusive: 5.93%,
Cn1c(C(=O)N2CCN(Cc3ccc4c(c3)OCO4)CC2)cc2c(=O)n(C)c3ccccc3c21,inconclusive: -12%,
CCN(CC)c1ccc(S(=O)(=O)N2CCOCC2)cc1NC(=O)COC(=O)c1cccnc1SC,inconclusive: -27.5%,
COc1cc(OC)cc(C(=O)OCc2ccc([N+](=O)[O-])cc2)c1,inconclusive: -8.61%,
O=C(O)c1ccc(NCc2nc3ccccc3n2Cc2ccccc2F)cc1,inconclusive: -8.64%,
CCNC(=S)Nc1ccc(Cl)c(C(F)(F)F)c1,inconclusive: -50.3%,
Cc1ccc(NC(=O)c2cccc3cccnc23)cc1,inconclusive: 171%,
CC(C)COc1cccc(-c2cc(C(=O)Nc3ccon3)c3ccccc3n2)c1,,"inconclusive: 29.1 µM [falling, single point]"
COc1cc(C(=O)CSc2nncn2C)cc(OC)c1OC,inconclusive: 32.6%,
O=S(=O)(NC1CC2CCC1C2)c1ccc(Br)cc1 (configuration not stated),inconclusive: 10.7%,
Cc1ccc(-c2cc(=O)c3cc(F)ccc3[nH]2)cc1,inconclusive: 2.24%,
COC(=O)c1sc(NC(=O)COc2ccccc2C)nc1C,inconclusive: 6.03%,
COc1ccc(S(=O)(=O)N2CCCC2)cc1Br,,"inconclusive: 29.1 µM [activator, single point]"
CN1CCN(C(=O)c2ccc(Oc3ccc([N+](=O)[O-])cc3)cc2)CC1,inactive,
CCCNC(=O)CCCN1C(=O)c2ccccc2Sc2ncccc21,inconclusive: 75.7%,
CC(CCc1ccccc1)NC(=O)COC(=O)c1cc(NS(=O)(=O)c2ccc(Cl)c([N+](=O)[O-])c2)ccc1O (configuration not stated),,"inconclusive: 0.146 µM [falling, single point]"
COc1cc(C(=O)CSc2nccn2C)cc(OC)c1OC,,"inconclusive: 29.1 µM [activator, single point]"
CCCCOc1ccc(C(=O)NCC(=O)N2CC(C)CC(C)C2)cc1 (configuration not stated),inconclusive: -3.25%,
CCN(CC)CCNC(=O)c1ccc(NC(=O)Cc2cccc3ccccc23)cc1,,"inconclusive: 0.0046 µM [activator, full curve, poor fit]"
COc1ccc(NC(=O)CCCn2cnc3ccccc3c2=O)c(OC)c1,inconclusive: -16.6%,
COc1ccc(OCC(=O)Nc2ccccc2C(=O)NC(C)C)cc1,inconclusive: -131%,
COCCNC(=O)NC(=O)CN1CCN(C(c2ccccc2)c2ccccc2)CC1,inconclusive: 6.61%,
CCCc1ccc2c(N)c(C#N)sc2n1,,"inconclusive: 2.91 µM [activator, full curve]"
CCCn1c(=O)c(C(=O)NCc2ccccc2Cl)c(O)c2ccccc21,,"inconclusive: 29.1 µM [activator, single point]"
Cc1cccc2cc(CN(Cc3ccco3)C(=O)N3CCCC3)c(=O)[nH]c12,,"inconclusive: 1.84 µM [activator, partial curve]"

# 3 entries out of the list, ordered by molecular weight, low to high:
SMILES,"lipid storage change, negative = inhibition",Potency
O=C(NC1CCCCC1)c1cc(-c2cccs2)on1,inconclusive: 68.2%,
Cc1cc(C)nc(-n2nc(C)c3c(C(F)F)cc(C)nc32)n1,inconclusive: -15%,
COc1ccc(Cl)cc1C(=O)NNC(=O)COC(=O)CCN=C1NS(=O)(=O)c2ccccc21,,"inconclusive: 13 µM [activator, partial curve]"
